Measurements: PubChem BioAssay AID1508600 (Functional Genomics Laboratory (NCATS/FGL), 2020)
Among all 53,000 sequences or so, about 3,700 (7%) were called active.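 The calls were made as follows: active = gene knockdowns whose robust z-score for IL-1 alpha signal is at least 2 or at most -2, so actives lie on both sides; inactive = the rest.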 Some of the results follow.

Test: Components of the Cytosolic LPS Sensing Pathway: Gene Identification via Genome-wide siRNA Screen;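 also: robust z of the log signal after scaling to non-targeting control siRNA wells of the plate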
Conditions: RAW264.7 macrophages, IL-1a HTRF, actives lie on both sides, screened at 100 nM (by protocol), cells primed 5 h with Pam3CSK4 first
Outline: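 Knockdown: 100 nM siRNA, 48h, RAW264.7. Stimulation: Pam3CSK4 5 h, then LipidA via TransIT-TKO 24 h. Output: supernatant IL-1a HTRF, negative-control-normalized, log robust z-score; viability by CellTiter-Glo.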

z-score, inactive:
CGGUGUCCAACCUUACACUTT against Slc8a2 -0.352
GGAAAUAUGUAUCAGCUACTT against Smyd5 0.514
CCACUGAUGUGAGAUAUAATT against Zp2 0.0638
GGCGAUUUACAACUUUGGATT against H2aw 0.0941
GGAUGUCAAGCAAAUUUUUTT against Slc25a13 0.802
GCAGGAGGAUUAGUAAAUUTT against Ier2 0.966
CGGUACAAACAGUGCAGAUTT against Eif4e3 1.77
GGGACGACUCUUUCUUAUGTT against Olfr1264 0.822
GGCUUUUUAAAUGCUUCCCTT against Prr7 0.469
GGAAGAUGACAAGUUGAUCTT against Spsb1 -0.0523
CGUGAACAAAAGAAGGGCUTT against Scel 0.494
CGGAAAUUCUAGAAGCCAUTT against Kcnab2 -0.288
GCAGUUGGGACAAGCCUUUTT against Trak2 1.09
GGAGAGUGACAUCAUCGUATT against Obsl1 -0.0139
GGACAUACUAAUGAGGUCATT against Tbl1x 0.389
GGAAGAAGGAACAUUUUGGTT against Fbxo25 -0.388
GCUCAACAGGCUCAACUACTT against Cndp2 0.492
GGGAAAACAGCUCCUCACATT against Zfhx4 -1.05
GGUAUCAAAGCUGAAAUUGTT against Sptbn1 -1.27
GGAUGAGAGUCCACAGCAATT against Lpar3 -1.26
GGGCUACAAACAUGGAACGTT against Dalrd3 0.319
GGCUUGAGACAUUUUUCAATT against Tfdp2 0.876
GGCCUGGCACCUCAUAUUATT against Cnot1 1.38
GCUGAAUACGAUGAAGUCATT against BC051019 -0.332
GGUCUCAGGUUGUUUUGAUTT against Rasl10b -1.01
GCUUUCCUAGACAAUCUAUTT against Arhgap19 0.0654
GGAUGUAGAGAAAAUGAUCTT against Ces3b 0.763
GGUCAUGAAUUACUAUUCCTT against Cyth2 1.02

Pulled one by one from above, two records:
z-score, inactive:
GGCCUGGCACCUCAUAUUATT against Cnot1 1.38
GGAAGAUGACAAGUUGAUCTT against Spsb1 -0.0523

Following part.

z-score, active:
GGAAGGACAACACUGCACCTT against Cd40 2.44
GCCCGAUAUUAUAACGGUGTT against Eomes 2.97
